Drawing on patent CN102924600A, this text covers binding for one molecule.

Sequences of proteins named here, by UniProt entry; tags and fusion partners are left off. Residues count along the entry.
UniProt O14763, residues 56-210: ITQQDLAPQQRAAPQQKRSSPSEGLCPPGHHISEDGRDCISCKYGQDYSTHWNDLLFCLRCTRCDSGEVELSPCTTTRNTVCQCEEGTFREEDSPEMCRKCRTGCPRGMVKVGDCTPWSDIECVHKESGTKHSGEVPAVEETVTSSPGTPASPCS

Results are given in words; binding and its absence hold for the method and conditions named. Some entries that bind do so weakly or less than the wild type.

The target of the test is DR5胞外区蛋白 (DR5抗原, peproTech公司) (human) (UniProt O14763). As to the kind of experiment: phage display panning on plate-coated DR5 antigen (5 rounds).

B1: 针对死亡受体5的单链抗体 (DR5单链抗体) (scFv)
scFv: DIVMTQSPSSLAVSAGERVTMSCKSSQSLLNSRTRKNCLAWYQQKPGQFPKLLIYWASTRESGVPDRFTGSGSGTDFTLTISSVQAEDLAVYYCQQSFDLPTFGGGTKLELKRGGGGSGGGGSGGGGSGGGGSEVQLQQSGAEPVKSGASVKLSCTASGFNIKDTFIHWVKQRPEQGLEWIGRIDPANGNTKYDPKFQGKATITADTSSNTVYLQFSSLTSEDAAVYYCSRGTTVYYFDHWGQGSTLTVSS
Consider B1, for which the binding entry is “binds”.
